The match of structure and compound is tentative.
Target: OGG1 (Homo sapiens, UniProt O15527)
Assay: fluorescence-based OGG1 activity assay (TAMRA/BHQ2 8-oxo-Gua substrate)
Details: hydrazide forms vs parent acyl hydrazones

Sequences of proteins named here, by UniProt entry; tags and fusion partners are left off.
UniProt O15527, whole entry: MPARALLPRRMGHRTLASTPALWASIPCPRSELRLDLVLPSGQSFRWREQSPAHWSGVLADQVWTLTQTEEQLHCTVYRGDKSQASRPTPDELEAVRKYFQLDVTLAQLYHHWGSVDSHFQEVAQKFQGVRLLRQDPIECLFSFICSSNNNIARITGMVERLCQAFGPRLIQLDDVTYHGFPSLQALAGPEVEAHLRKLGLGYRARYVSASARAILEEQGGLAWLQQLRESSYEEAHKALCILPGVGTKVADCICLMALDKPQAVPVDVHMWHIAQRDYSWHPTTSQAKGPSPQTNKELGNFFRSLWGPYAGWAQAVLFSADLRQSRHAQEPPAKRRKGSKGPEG

SMILES: NNC(=O)c1cc2ccccc2cc1O [3-hydroxy-2-naphthohudrazide]
- OGG1 IC50 values compared with parent molecules: less than or equal to their parent molecules

Source: US20170038365A1, “SMALL MOLECULE INHIBITORS OF 8-OXOGUANINE DNA GLYCOSYLASE-1 (OGG1)” (OREGON HEALTH & SCIENCE UNIVERSITY, priority 2015, published 2017)
